Results reported in PubChem BioAssay AID2685 (National Center for Advancing Translational Sciences (NCATS), 2010).
The list shows a part of the results. Further columns of the screen follow, without active or inactive calls. The list favours compounds with an active or inconclusive main result. Potencies come from curve fits of mixed quality, noted in brackets.

Test: qHTS Assay for Lipid Storage Modulators in Drosophila S3 Cells;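 as to cell number change: cells counted by Cell Tracker Red CMTPX staining in the red channel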
Conditions: BODIPY lipid droplet fluorescence, 18-24 h; for cell number change: measured here: cell count max response, cells fed with added oleic acid
How it was run: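 Drosophila S3 cells loaded with oleic acid (400 uM, as added) and compounds at several concentrations; lipid droplets imaged by 488-nm laser-scanning cytometry, 500–530 nm intensity and object ratio to cell channel. Percent activity normalized to 20 uM Triacsin C.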

[1] = measured here: cell number channel AC50, cells fed with added oleic acid
[2] = measured here: lipid fluorescence (Fed channel) AC50, cells fed with added oleic acid

SMILES | cell number change [%] | AC50 [1] | AC50 [2]
CCc1ccc(NC(=O)CSc2nnc(CC)c(CC)n2)cc1 | 93.2 | 0.731 µM [rising, single point] | 
CC(C)c1ccc(S(=O)(=O)N2CCN(C(=O)CN3C(=O)NC4(CCCCC4)C3=O)CC2)cc1 | -13.5 |  | 
O=C(NC1CCCC1)C(c1ccccc1)N(C(=O)c1csnn1)c1ccccc1F (configuration not stated) | -17.1 |  | 
CCS(=O)(=O)NCc1ccc2[nH]c3c(c2c1)CCCC3 | 73.4 | 14.6 µM [rising, partial curve] | 18.4 µM [rising, partial curve]
C=C(C)c1cccc(C(C)(C)NC(=O)NCc2ccc(OC)cc2)c1 | 2.73 |  | 6.51 µM [falling, partial curve, poor fit]
COc1ccccc1CNC(=O)COc1ccc([N+](=O)[O-])cc1 | 38.2 |  | 0.82 µM [rising, partial curve]
COc1ccc(-n2c(SCC(=O)N3CCOCC3)nc(O)c(Cc3ccccc3)c2=O)cc1 | 11.2 | 1.84 µM [falling, partial curve] | 29.1 µM [falling, single point]
O=C(O)c1ccc(O)cc1O | 0.113 |  | 1.16 µM [rising, single point]
C=CCn1c(SCc2csc(C)n2)nc2sc3c(c2c1=O)CCCC3 |  | 0.731 µM [rising, single point] | 
CN(C)/C=C1\N=C(c2cccs2)OC1=O | 2.71 |  | 18.4 µM [rising, partial curve]
COc1ccc2c(c1)c1ncn(CCc3ccccc3)c(=O)c1n2C | 21.4 | 0.103 µM [rising, full curve] | 0.116 µM [rising, full curve, poor fit]
CCCCn1c(SCc2nc3ccccc3s2)nc2ccccc2c1=O | 1.45 |  | 1.84 µM [rising, partial curve]
CCc1cccc2c1NC(=O)C2(O)CC(=O)c1cccs1 (configuration not stated) | 22.6 | 3.66 µM [rising, single point] | 7.31 µM [rising, partial curve]
CCN(Cc1nc(-c2ccccc2)no1)C(=O)c1ccoc1C | -10.5 |  | 2.82 µM [rising, partial curve]
COc1ccccc1C(=O)Nc1ccc(C(=O)N2CCCC2)cc1 | 4.49 | 0.731 µM [rising, partial curve, poor fit] | 3.66 µM [rising, partial curve]
Cc1nc(C)n(C(C)CNS(=O)(=O)c2ccc(C)c(C)c2)n1 (configuration not stated) | 9.66 |  | 6.51 µM [rising, single point]
O=C(Cc1cccs1)N1CCN(S(=O)(=O)c2cccc([N+](=O)[O-])c2)CC1 | 39.7 | 32.6 µM [rising, single point] | 29.1 µM [rising, single point]
Cn1c2ccccc2c2cc(/C=N/NC(=O)c3cc(O)cc(O)c3)ccc21 | -27.9 |  | 28.2 µM [falling, single point]
COc1ccc(S(=O)(=O)N2CCCCCC2)cc1C(=O)N(C)CC(=O)Nc1c(Cl)cccc1Cl | 24.9 |  | 

SMILES | cell number change [%] | AC50 [1] | AC50 [2]
COc1cccc(NC(=O)CSc2ccc3nnc(-c4ccncc4)n3n2)c1 | -14.7 |  | 0.00411 µM [rising, full curve, poor fit]
O=C(NCc1ccc2c(c1)OCO2)c1ccco1 | 32.2 |  | 
O=C(CSc1nc(O)c(C2CCCCC2)c(=O)[nH]1)Nc1ccc(Cl)cc1 |  | 0.0146 µM [falling, full curve, poor fit] | 18.4 µM [falling, partial curve]
O=C(COC(=O)c1ccc2ccccc2c1O)NCc1ccccc1 | -21.5 | 3.26 µM [falling, partial curve, poor fit] | 
Cc1[nH]nc(N=CC2=C(O)CC(c3ccco3)CC2=O)c1-c1ccc(Cl)cc1 (configuration not stated) | 40.7 | 18.4 µM [rising, single point] | 0.13 µM [falling, full curve, poor fit]
COc1cc(CNc2cccc3[nH]c(C(F)(F)F)nc23)cc(OC)c1 | 5.9 |  | 6.51 µM [falling, single point]
CCNC(=O)NC(=O)C(C)Sc1nc2ccccc2n1CC(C)C (configuration not stated) | -5.98 |  | 
CC(C)(C)c1cc(C(=O)NCC(=O)OCC(=O)c2cccc([N+](=O)[O-])c2)cc(C(C)(C)C)c1 | -25.3 | 0.13 µM [falling, full curve] | 0.731 µM [falling, full curve]
COc1ccc(C2=NN(C(=O)CCC(=O)O)C(c3ccc(OC)c(OC)c3)C2)cc1 (configuration not stated) | 4.99 |  | 29.1 µM [rising, single point]
CC(C)(C)n1nc2c(c1NC(=O)COc1ccc(Cl)cc1)CSC2 | -18.8 |  | 0.517 µM [rising, single point]
O=C(Nc1nnc(S(=O)(=O)N2CCN(c3ccc(F)cc3)CC2)s1)c1ccco1 | -14.5 |  | 2.91 µM [rising, full curve]
CN(CC(=O)N1CC=C(c2ccccc2)CC1)S(=O)(=O)c1cnc[nH]1 | 1.07 |  | 0.651 µM [falling, full curve, poor fit]
CC(C)OC(=O)C1=C(N)N2C(=O)CSC2=C(C(=O)OC(C)C)C1 | 40.5 | 8.2 µM [rising, partial curve, poor fit] | 16.4 µM [rising, partial curve]
Cc1cc2c(c(=O)o1)C1O[C@](c3ccsc3)(Cc3ccccc31)O2 | -3.78 |  | 
N/C(=N\OC(=O)c1ccc2ccccc2c1)c1ccncc1 | 36.8 | 32.6 µM [rising, partial curve, poor fit] | 
Cc1cc(C)c2[nH]c(=O)c(C(c3nnnn3C3CCCC3)N3CCOCC3)cc2c1 (configuration not stated) | -2.65 |  | 0.206 µM [rising, full curve, poor fit]
Cc1ccc(NC(=S)N(CCN2CCOCC2)Cc2cc3cc4c(cc3[nH]c2=O)OCO4)cc1 | 14.8 |  | 0.058 µM [rising, full curve, poor fit]
CC1=C(C(=O)OC(C)C)C(C2CC=CCC2)NC(=O)N1 (configuration not stated) | -222 | 23.1 µM [falling, partial curve] | 18.4 µM [falling, partial curve]

A draw from above in order of SMILES length, low to high.
SMILES | cell number change [%] | AC50 [1] | AC50 [2]
CC(C)OC(=O)C1=C(N)N2C(=O)CSC2=C(C(=O)OC(C)C)C1 | 40.5 | 8.2 µM [rising, partial curve, poor fit] | 16.4 µM [rising, partial curve]
CN(CC(=O)N1CC=C(c2ccccc2)CC1)S(=O)(=O)c1cnc[nH]1 | 1.07 |  | 0.651 µM [falling, full curve, poor fit]
CC(C)(C)c1cc(C(=O)NCC(=O)OCC(=O)c2cccc([N+](=O)[O-])c2)cc(C(C)(C)C)c1 | -25.3 | 0.13 µM [falling, full curve] | 0.731 µM [falling, full curve]
